Assay results as given in PMC10792529 (Proteins, 2023).
These are yes or no findings as the source states them, for the method shown. Some results given as binding are weak or reduced against the parent protein; the word gives no strength.

T1: human SUN1 SUN domain (human, UniProt O94901 589-785)
T1 sequence: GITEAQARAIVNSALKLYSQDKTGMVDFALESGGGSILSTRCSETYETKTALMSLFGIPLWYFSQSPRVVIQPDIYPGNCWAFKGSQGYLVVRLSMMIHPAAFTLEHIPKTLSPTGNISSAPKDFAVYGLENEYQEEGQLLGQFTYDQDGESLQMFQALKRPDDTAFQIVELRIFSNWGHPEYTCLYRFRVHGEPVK


Assays:
human SUN1 SUN domain = molecular target: T1, human SUN1 SUN domain; assay: crystal structure; SUN1-KASH6 complex, nine SUN domains and six KASH peptides; both purified
[1] = molecular target: TurandotA protein from Drosophila melanogaster (Drosophila melanogaster) (UniProt Q8IN44); assay: SEC + other: NMR relaxation; recombinant TotA in solution; data not shown; both purified

Row | binding [1] | Binder | binding (human SUN1 SUN domain)
1 | – | TGQLFQKSVDAAPTQQEDSWTSLEHILWPFTRLRHNGPPPV [KASH6 peptide, the KASH domain of JAW1/LRMP] | binds
2 | no binding | TurandotA protein from Drosophila melanogaster (protein, UniProt Q8IN44 22-129) YSDEDREADNLRIAEIIKNAQDDDSKINSTQELLDIYRRLYPSLTPEERESIDKFVNEHTDAIIIDGVPIQGGRKARIVGKIVSPGVKGLATGFFEELGSKLAQLFTG | –
